Measurements reported in US20030092157.

Tested on: LXRα/RXR heterodimer (expressed in Cos-1)
Test: activity in cells
Conditions: protein in cells, only the site is given

Which “activity on this sequence” value (2 copies, weaker activation) does the source give for “AGATCACTTGAGGTCA (double strand) [-7188 LXRE (ABC1 intron 1)]” here?
Its value is “less active”.

How did the “activity on this sequence” value (2 copies, strong activation) turn out when “AGGTTACTATCGGTCA (double strand) [+4-LXRE (ABC1 exon 1/promoter)]” was run?
The value was “active”.

“GGATCACCTGAGGTCA (double strand) [-11050 LXRE (ABC1 intron 1)]” was tested. Which “activity on this sequence” value (4 copies, weaker activation) did it give?
Its value is “less active”.

Weaker means in comparison with the reference protein, sequence or condition of that experiment.
